# Results taken from PubChem BioAssay AID504467 (National Center for Advancing Translational Sciences (NCATS), 2011).
# Out of some 330,000 compounds screened, about 7,700 (2.3%) were called active. Inconclusive results, whose numbers are uncertain, are shown with a selection of clear calls. Calls come from the whole dose curve; as a rule, active = well fitted inhibition curve with a large enough effect; inconclusive = small, poorly fitted or top-dose-only effect, or effect the other way; inactive = flat fitted curve, though single readings scatter. Where the call is inconclusive, the potency comes from a doubtful curve fit.
# Assay: qHTS screen for small molecules that inhibit ELG1-dependent DNA repair in human embryonic kidney (HEK293T) cells expressing luciferase-tagged ELG1; note: nearly all actives have a fitted effect of over 55% in size
# Conditions: HEK293T ELG1-luciferase reporter, luminescence, 16 h, DNA damage induced by 5-fluorouridine; activity change, negative = inhibition: at 46.1 µM (top of the series)
# How it was run: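 Overnight (16 hr) co-exposure of 2,000 cells/well to 5-fluorouridine and compound at 37 °C preceded detection. Luciferase was quantified via ONE-Glo luminescence; loss of signal denotes inhibition.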
# % is set by controls: 0 for no effect and ±100 for the full control effect; potency is the fitted concentration of half-maximal effect.
SMILES,Potency,"activity change, negative = inhibition"
Cc1cc(Cl)ccc1OCCCC(=O)Nc1cccnc1,"inconclusive: 16.4 µM [inhibitor, single point]",
CCOc1ccc(C2C=C(c3ccccc3)Nc3ncnn32)cc1 (centres undefined),,inactive: -12.5%
O=C(Nc1cccc2nsnc12)c1ccc(F)cc1,"inconclusive: 29.1 µM [inhibitor, single point]",
Cc1ccc(NC(=O)[C@H](Cc2ccccc2)NC(=O)[C@@H]2Cc3ccccc3CN2)c(C)c1,,inactive: 0.642%
CCOCc1cc(CN2CCC(CCC(=O)NC3CC3)CC2)ccc1OC,,inactive: 10.5%
COc1ccc(NC(=O)c2cn(-c3ccccc3)nc2-c2cc3ccccc3o2)cc1,"inconclusive: 23.1 µM [inhibitor, single point]",
CCCCOC(=O)Nc1ccc(C(N)=O)cc1,"inconclusive: 20.6 µM [activator, partial curve]",
O=C(Cc1ccc(Cl)cc1Cl)NCc1cccnc1,"inconclusive: 20.6 µM [activator, single point]",
COc1ccc(NC(=O)CN(C)C(=O)c2cccc(NS(=O)(=O)c3ccc(Br)cc3)c2)cc1,,inactive: -1.55%
COc1ccc(CCN(C)C(=O)Cc2ccc(-c3ccccc3)cc2)cc1OC,"inconclusive: 6.51 µM [inhibitor, partial curve]",
CCOC(=O)C1(CCOc2ccccc2)CCN(Cc2cc(OC)cc(OC)c2)CC1,"inconclusive: 14.6 µM [inhibitor, partial curve]",
COc1cccc(-n2c(-c3ccc4[nH]c(C)c(C)c4c3)n[nH]c2=S)c1,"inconclusive: 29.1 µM [inhibitor, single point]",
COc1ccc(-c2cc(C)nc(SCC(=O)c3cccc([N+](=O)[O-])c3)n2)cc1,active: 20.6 µM,
COc1ccc(N(CC(=O)N2CCN(c3ccc(Cl)cc3)CC2)S(=O)(=O)c2c(C)n[nH]c2C)cc1,"inconclusive: 29.1 µM [inhibitor, single point]",
COC(=O)C(C)N1C(=O)S/C(=C\c2ccc(-c3ccc(C(=O)O)cc3C)o2)C1=O (centres undefined),"inconclusive: 14.6 µM [activator, partial curve]",
C[C@H](CO)N1C[C@H](C)[C@@H](CN(C)S(=O)(=O)c2cccs2)Oc2ccc(NC(=O)c3ccncc3)cc2C1=O,,inactive: 8.15%
CSc1nc(Cl)cc(Nc2ccccc2N)n1,"inconclusive: 16.4 µM [activator, partial curve, poor fit]",
Cc1ccnc(NC(=O)Nc2ccc3c(c2)OCO3)c1,"inconclusive: 1.83 µM [activator, full curve]",
Cc1ccc(N2C(=O)C3C4CC(=O)C(c5ccccc54)C3C2=O)cc1C (centres undefined),,inactive: -8.53%
CCC(C)NC(=O)/C=C/c1cccs1 (centres undefined),"inconclusive: 8.2 µM [activator, partial curve]",
Cc1ccc(-c2ccc(=O)n(Cc3c(F)cccc3Cl)n2)cc1,,inactive: 3.53%
Cc1nn(CC(=O)NC2(C#N)CCCCC2)c(C)c1[N+](=O)[O-],,inactive: -1.27%

SMILES,Potency,"activity change, negative = inhibition"
C=CC[C@H](CC(=O)N(CCO)Cc1ccccc1)C(=O)N[C@H](COC(=O)[C@H](CC=C)CC(=O)OC(C)(C)C)Cc1c[nH]c2ccccc12,active: 20.6 µM,
Cc1cc2c3c(c1)C1(C(=O)N3C(C)(C)CC2C)C(C#N)=C(N)Oc2n[nH]c(C)c21 (centres undefined),"inconclusive: 18.4 µM [inhibitor, partial curve, poor fit]",
COc1cc(O)c(C(CCN2CCCC(C)C2)c2ccc3c(c2)OCO3)c(OC)c1 (centres undefined),,inactive: -1.49%
CCCCC(=O)Nc1ccc(NC(=O)c2ccc(C)c([N+](=O)[O-])c2)cc1OC,"inconclusive: 23.1 µM [inhibitor, single point]",
O=C(O)c1cc([N+](=O)[O-])c(N2CCCC2)c([N+](=O)[O-])c1,,inactive: 13%
CCc1c(C)sc2nc3c(C(=O)N4CCOCC4)cc(C(=O)c4cc(F)ccc4O)cn3c(=O)c12,"inconclusive: 18.3 µM [inhibitor, single point]",
O=C1OC(c2ccc3c(c2)OCO3)=N/C1=C\c1ccc(C(=O)O)cc1,,inactive: -2.68%
CCOc1cc(-c2nnc(NC(=O)C3=COCCO3)o2)cc(OCC)c1OCC,,inactive: -3.5%
Cc1ccc(NC(=O)C(=O)Nc2ccccn2)cc1,"inconclusive: 0.231 µM [activator, full curve]",
CCOc1ccc(S(=O)(=O)N(C)c2ccc(OCC(=O)NCC3CCCO3)cc2)cc1 (centres undefined),,inactive: -3.77%
CCN1CCN(c2ccc(S(=O)(=O)N3CCCCC3)cc2NC(=O)c2sccc2C)CC1,,inactive: -1.05%
Cn1c(=O)c2c(nc(-n3ccnc3)n2Cc2ccc([N+](=O)[O-])cc2)n(C)c1=O,"inconclusive: 0.651 µM [activator, partial curve, poor fit]",
Fc1ccc(Sc2ccccc2CNC2=NCCN2)cc1,"inconclusive: 18.4 µM [inhibitor, partial curve]",
O=C(NCc1cccs1)c1ccc([N+](=O)[O-])cc1Cl,"inconclusive: 20.6 µM [activator, single point]",
Fc1ccc(-c2nnc(N3CCOCC3)c3ccccc23)cc1F,"inconclusive: 6.51 µM [activator, single point]",
Cc1cccc(NC2=C/C(=N/S(=O)(=O)c3cccs3)c3ccccc3C2=O)c1,active: 4.11 µM,
COc1ccc(S(=O)(=O)N2CCCCC2)cc1NS(=O)(=O)c1ccccc1F,,inactive: -1.47%
O=C(CSc1nnc(-c2c[nH]c3ccccc23)o1)c1ccccc1,"inconclusive: 14.1 µM [activator, partial curve, poor fit]",
Cc1[nH]c2ccccc2c1/C=N/Nc1ccc([N+](=O)[O-])cc1S(=O)(=O)Nc1ccc(Cl)cc1,"inconclusive: 1.16 µM [inhibitor, partial curve, poor fit]",
CCOC(=O)N1CCC(NC(=O)c2ccc3c(c2)sc2nc(-c4ccc(OC)cc4)cn23)CC1,"inconclusive: 18.4 µM [activator, single point]",
CCc1ccc(S(=O)(=O)Nc2ccc(-c3ccc4nnc(C)n4n3)cc2)s1,"inconclusive: 6.51 µM [activator, single point]",
O=C(Oc1cccc(NC2=NS(=O)(=O)c3ccccc32)c1)c1ccncc1,"inconclusive: 20.6 µM [activator, single point]",

# Individual results from the list:
# Entry of C=CC[C@H](CC(=O)N(CCO)Cc1ccccc1)C(=O)N[C@H](COC(=O)[C@H](CC=C)CC(=O)OC(C)(C)C)Cc1c[nH]c2ccccc12 under Potency: active: 20.6 µM
# Entry of Fc1ccc(-c2nnc(N3CCOCC3)c3ccccc23)cc1F under Potency: inconclusive: 6.51 µM [activator, single point]
